# Reference: patent US6465527B1, “Iodinated hydrocarbon pesticide” (priority 1999, dated 2002)
# Some entries share one result that the patent states for a list of compounds. For at least one compound, name, drawing or mass did not settle the structure.
# Key:
# [1] = test system: American (Periplaneta americana) and German (Blattella germanica) cockroaches; test: Knockdown and mortality of cockroaches in sealed jar (both species); type: in vivo; settings: 50 μl on cotton ball in sealed 0.95-liter jar
# Procedure: In this experiment both the insecticidal and nematicidal properties of iodinated hydrocarbons were compared. In determining the insecticidal properties of the iodinated hydrocarbons, both American (Periplaneta americana) and German (Blattella germanica) cockroaches were used. Groups of cockroaches were confined in 0.95-liter glass jars with a small cotton ball. Exactly 50 μl of a test chemical was applied to the cotton ball and the jar was sealed.
# [2] = test system: crabgrass [Digitaria sanguinalis], purple nutsedge [Cyperus rotundus], Jimson weed [Datura stramonium] and a variety of other weed species; test: Greenhouse herbicide test in weed-infested potted soil (Experiment 6, FIG. 6); type: in vivo; settings: covered pots
# Procedure: Illustrated in FIGS. 6 and 7 are the herbicidal properties of the present invention. In FIG. 6, 1,3-diiodopropane and 1,4-diiodobutane were added to a soil sample contained in a pot, wherein the number of weeds were counted at the end of a one week period. The top row of the “x” axis plots the amount in milligrams of iodinated hydrocarbon added per kilogram of soil. The two rows below the top row depict the number of weeds found after a week, which is also plotted on the “y” axis. […] It is inferred that greater dosages would eliminate an even greater number of weeds. FIG. 7 depicts similar results except that the weed controlled was only one variety: crabgrass. […] It is also inferred that dosages larger than 20 mg of iodinated hydrocarbons would further eliminate an even greater number of crabgrass plants.
# For each chemical, an aqueous emulsion with 0.2% [w/w] of the compound was prepared and was applied to soil at rates of 2, 4, 6, 8, 10, and 12 mgs a.i./Kg soil. The treated soil was mixed and transferred to 1L capacity 10-cm diameter cylindrical pots. Pots with untreated soil [control] and with treated soil were placed on a greenhouse bench in a randomized complete block design. […] All pots were covered, and the number of weeds were counted 7, 14 and 30 days after application of the chemicals.
SMILES,Time to 100 percent mortality of cockroaches [1],Rates necessary to have satisfactory weed control [2]
CCI [iodoethane],≤ 2 h,
"CI [iodomethane, reference compound]",≤ 2 h,
"ICCCCI [1,4-diiodobutane]",,≥ 16 mgs/Kg soil
"ICCCI [1,3-diiodopropane]",,≥ 16 mgs/Kg soil
CCCI [1-iodopropane],≤ 2 h,
